# According to PubChem BioAssay (Tox21):
# Amino acid sequences for entries named in this document (tags omitted). A change or cut given only in a name is not applied to a line headed by its entry.
# UniProt P03372, whole entry, looked up: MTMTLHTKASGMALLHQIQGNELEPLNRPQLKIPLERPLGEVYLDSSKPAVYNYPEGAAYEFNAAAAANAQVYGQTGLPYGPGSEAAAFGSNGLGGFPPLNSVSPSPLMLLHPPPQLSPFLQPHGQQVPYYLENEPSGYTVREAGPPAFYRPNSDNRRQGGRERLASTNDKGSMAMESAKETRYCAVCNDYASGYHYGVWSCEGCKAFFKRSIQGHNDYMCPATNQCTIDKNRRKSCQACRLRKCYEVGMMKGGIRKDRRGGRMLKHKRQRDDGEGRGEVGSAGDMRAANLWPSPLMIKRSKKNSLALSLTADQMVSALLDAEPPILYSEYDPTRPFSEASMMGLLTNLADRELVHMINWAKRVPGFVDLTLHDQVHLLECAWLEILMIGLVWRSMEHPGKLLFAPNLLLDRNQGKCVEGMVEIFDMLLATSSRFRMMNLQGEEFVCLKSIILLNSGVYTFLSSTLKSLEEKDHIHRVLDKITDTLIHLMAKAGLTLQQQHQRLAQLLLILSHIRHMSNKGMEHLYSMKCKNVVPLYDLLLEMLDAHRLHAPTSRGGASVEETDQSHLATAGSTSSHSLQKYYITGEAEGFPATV
# UniProt P10275: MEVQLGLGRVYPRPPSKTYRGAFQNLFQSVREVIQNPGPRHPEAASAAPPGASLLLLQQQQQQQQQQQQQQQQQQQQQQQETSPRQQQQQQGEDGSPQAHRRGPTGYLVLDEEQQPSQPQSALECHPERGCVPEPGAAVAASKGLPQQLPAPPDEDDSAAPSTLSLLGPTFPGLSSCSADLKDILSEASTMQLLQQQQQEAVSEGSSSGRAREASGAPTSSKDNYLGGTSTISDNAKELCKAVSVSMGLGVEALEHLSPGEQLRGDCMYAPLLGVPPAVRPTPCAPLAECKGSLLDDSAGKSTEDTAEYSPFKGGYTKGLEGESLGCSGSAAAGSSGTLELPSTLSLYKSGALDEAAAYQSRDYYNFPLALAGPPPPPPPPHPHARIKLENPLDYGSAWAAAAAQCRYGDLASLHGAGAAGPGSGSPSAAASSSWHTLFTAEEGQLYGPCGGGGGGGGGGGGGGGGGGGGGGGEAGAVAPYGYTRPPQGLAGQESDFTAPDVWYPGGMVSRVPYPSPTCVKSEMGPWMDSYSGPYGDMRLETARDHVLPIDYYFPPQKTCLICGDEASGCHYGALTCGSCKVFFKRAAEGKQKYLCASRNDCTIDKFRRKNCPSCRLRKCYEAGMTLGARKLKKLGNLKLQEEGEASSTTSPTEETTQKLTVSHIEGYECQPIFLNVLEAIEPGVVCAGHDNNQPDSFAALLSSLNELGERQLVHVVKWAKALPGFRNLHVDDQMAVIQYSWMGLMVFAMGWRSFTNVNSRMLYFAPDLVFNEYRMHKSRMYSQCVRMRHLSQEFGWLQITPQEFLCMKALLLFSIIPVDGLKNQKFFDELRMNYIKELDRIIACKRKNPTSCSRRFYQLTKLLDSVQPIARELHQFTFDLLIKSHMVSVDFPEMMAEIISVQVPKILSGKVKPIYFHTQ
# UniProt P34981: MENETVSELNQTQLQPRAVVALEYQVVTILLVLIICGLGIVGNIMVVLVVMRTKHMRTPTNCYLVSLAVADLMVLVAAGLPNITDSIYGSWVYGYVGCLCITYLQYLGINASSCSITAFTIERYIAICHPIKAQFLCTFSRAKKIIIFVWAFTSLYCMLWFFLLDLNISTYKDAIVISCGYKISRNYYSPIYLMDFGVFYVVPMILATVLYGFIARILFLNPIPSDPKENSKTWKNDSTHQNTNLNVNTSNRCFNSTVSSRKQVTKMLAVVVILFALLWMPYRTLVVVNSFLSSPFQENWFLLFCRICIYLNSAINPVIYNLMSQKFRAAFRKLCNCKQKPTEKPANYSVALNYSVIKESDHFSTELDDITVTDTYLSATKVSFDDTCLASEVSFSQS
# The shares of active, inactive and inconclusive entries below differ from those in the screen. A call without a number means that no potency is given here. For part of these data: Where the call is inconclusive, the potency comes from a doubtful curve fit. Calls of active or inactive are those of the source. Unless noted, the call rests on the fitted dose curve; in most records, active means well fitted curve in the direction sought with a large enough effect in the repeat runs; inconclusive means weak or mixed curves; inactive means no such curve, though single readings can be large; an effect the other way counts as inactive or inconclusive.
# Experiments:
# [1] = target: Estrogen receptor (Homo sapiens) (UniProt P03372); experiment: qHTS assay to identify small molecule agonists of the estrogen receptor alpha (ER-alpha) signaling pathway in the presence of an antagonist (AID 1259383; calls by dose curve; further: top concentration of the series differs between compounds; nearly all actives have a fitted effect of over 15% in size); conditions: VM7Luc4E2 cells, ERE-luciferase, +ICI-182,780, 22 h; series mostly up to 42.5 µM
# In short: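 Using VM7Luc4E2 cells seeded 24hr before treatment, antagonist ICI-182,780 (10.0nM final) was added, followed by compounds at 15 concentrations. Plates incubated 22hr; ONE-Glo luminescence quantified reporter activity.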
# [2] = qHTS assay to test for compound auto fluorescence at 460 nm (blue) in HEK293 cells (AID 720678); conditions: blue autofluorescence 405/460 nm; series mostly up to 46 µM
# In short: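 Blue-channel (Ex/Em 405/460 nm) intensity measured in HEK293 cultures after overnight compound exposure at 37C; signal expressed relative to triamterene. Cells plated 2,000 per well in 10% dialyzed FBS medium and allowed 4-5 hr to attach.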
# [3] = A CellTox Green Cytotoxicity Assay to monitor cytotoxicity in HEK293 cells - 24 hour (AID 1224875); conditions: CellTox Green fluorescence; series mostly up to 76.8 µM; further: nearly all actives have a fitted effect of over 45% in size
# In short: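 Seeding of HEK293 cells together with cytotoxicity dye preceded a 5 h incubation at 37 C/5% CO2. Test compounds in DMSO were then added and fluorescence monitored across 40 h.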
# [4] = qHTS RealTime-Glo MT Cell Viability Assay in HepG2 cells - 0 hour (AID 1224889); conditions: RealTime-Glo luminescence; series mostly up to 76.8 µM; further: nearly all actives have a fitted effect of over 50% in size; further: potency means the concentration at half of the fitted maximal effect
# In short: (§1)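 Viability was tracked continuously by NanoLuc luminescence from prosubstrate reduced by living HepG2 cells, at successive time points over 40 h of compound exposure. Cells with reagent were preincubated 5 h at 37 °C before compound addition.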
# [5] = target: Androgen receptor (Homo sapiens) (UniProt P10275); experiment: qHTS assay to identify small molecule antagonists of the androgen receptor (AR) signaling pathway using the MDA cell line in the presence of 0.5 nM R1881 (AID 1259243); conditions: MDA-kb2 MMTV-luciferase, R1881 0.5 nM, 16 h; series mostly up to 42.5 µM; further: nearly all actives have a fitted effect of over 50% in size
# In short: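 We exposed MDA-kb2 cells to compounds under 0.5 nM R1881 stimulation for 16 hr at 37C and quantified MMTV-driven luciferase by luminescence.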
# [6] = qHTS assay to test for compound auto fluorescence at 590 nm (red) in HepG2 cell free culture (AID 720684); conditions: cell-free medium autofluorescence, red 540/590 nm; series mostly up to 91.3 µM; further: potency means the concentration at half of the fitted maximal effect
# In short: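 Red fluorescence (540 nm excitation, 590 nm emission) was measured after compound transfer into cell-free MEM supplemented with 10% FBS. Values are equivalencies against Rose Bengal sodium.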
# [7] = qHTS RealTime-Glo MT Cell Viability Assay in HepG2 cells - 16 hour (AID 1224885); conditions: RealTime-Glo luminescence; series mostly up to 76.8 µM; further: nearly all actives have a fitted effect of over 50% in size
# In short: as §1
# [8] = qHTS assay to identify small molecule agonists of the androgen receptor (AR) signaling pathway in the presence of an antagonist - cell viability counter screen (AID 1259379); conditions: MDA-kb2 viability, CellTiter-Fluor, 16 h; series mostly up to 92.4 µM; further: nearly all actives have a fitted effect of over 25% in size; further: potency means the concentration at half of the fitted maximal effect
# In short: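 A CellTiter-Fluor read-out measured viability of MDA-kb2 reporter cells (MMTV promoter with AR and GR response elements). Treatment: nilutamide 3.0uM final with compounds at 15 concentrations, 16 hr, 37C, 0% CO2.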
# [9] = target: Thyrotropin-releasing hormone receptor (Homo sapiens) (UniProt P34981); experiment: qHTS assay to identify small molecule agonists of the thyrotropin-releasing hormone receptor (TRHR) signaling pathway (AID 1346891; calls by dose curve); conditions: TRHR-HEK293 calcium fluorescence, agonist mode; series mostly up to 26.5 µM
# In short: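 HEK293 cells expressing TRHR plated 18 h at 37 C/5% CO2, calcium dye-loaded 2 h at 37 C, then compound added (agonist mode); kinetic calcium fluorescence read 3 min at 1 s intervals; 15 concentrations in triplicate.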
# [10] = qHTS assay to test for compound auto fluorescence at 460 nm (blue) in HepG2 cells (AID 720687); conditions: autofluorescence 405/460 nm, 1 h; series mostly up to 46 µM
# In short: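 Cells (2,000/well in MEM with 10% FBS) attached overnight at 37 C, then were exposed to compound or DMSO for 1 hr at 37 C, 5% CO2. Fluorescence read at Ex/Em 405/460 nm, expressed as triamterene-equivalent signal.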
# [11] = qHTS assay to identify small molecule agonists of the TGF-beta/Smad signaling pathway - cell viability counter screen (AID 1346829); conditions: SBE-bla HEK293T viability, CellTiter-Glo luminescence, 5 h; series mostly up to 76.8 µM; further: potency means the concentration at half of the fitted maximal effect; nearly all actives have a fitted effect of over 45% in size
# In short: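 Cytotoxicity counter screen: CellTiter-Glo luminescence (30 min, room temperature) measured in the SBE-bla HEK 293T reporter wells after 5 hr compound treatment at 37 C and the 2 hr substrate step.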
# [12] = Caspase-3/7 induction in HepG2 cells by small molecules, qHTS assay (AID 1346978); conditions: HepG2 caspase-3/7 activation, Caspase-Glo luminescence, 17 h; series mostly up to 92.4 µM; further: nearly all actives have a fitted effect of over 15% in size; further: potency means the concentration at half of the fitted maximal effect
# In short: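 Wild-type HepG2 cells (2,000/well) were settled 5 h at 37 C, 5% CO2, then exposed to compounds in DMSO for 17 h. Caspase-3/7 activity was read by luminescence 30 min after adding Caspase-Glo 3/7 reagent at room temperature.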
# [13] = qHTS assay to identify small molecule HDAC inhibitors (AID 1259364); conditions: HCT-116 HDAC-Glo I/II luminescence, 2 h; series mostly up to 92.4 µM;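 further: wild-type HCT-116 cells with endogenous class I/II HDAC activity; potency means the concentration at half of the fitted maximal effect; nearly all actives have a fitted effect of over 45% in size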
# In short: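 Relative class I and II HDAC activity is taken from the luminogenic signal in HCT-116 cells, with compound exposure 2 hr and reagent development 30 min at room temperature.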
# [14] = target: Androgen receptor (Homo sapiens) (UniProt P10275); experiment: qHTS assay to identify small molecule agonists of the androgen receptor (AR) signaling pathway (AID 743036; active means well fitted activation curve with a large enough effect in the signal ratio in the repeat runs, with a control signal flat, not every such curve was filed as active; inconclusive means weak or mixed curves, or effect the other way; inactive means no such curve, though single readings can be large or run the other way; the % refers to the signal ratio); conditions: HEK293 AR-UAS-bla GripTite, beta-lactamase FRET ratio, 16 h; activation: at 62.4 µM (top of the series) unless noted
# In short: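 AR-UAS-bla HEK293 cells, plated 4 h before dosing, were treated with compound for 16 h at 37C. beta-Lactamase reporter read after 2 h with LiveBLAzer B/G FRET substrate at room temperature.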
# [15] = target: Thyrotropin-releasing hormone receptor (Homo sapiens) (UniProt P34981); experiment: qHTS assay to identify small molecule antagonists of the thyrotropin-releasing hormone receptor (TRHR) signaling pathway (AID 1346877; active means well fitted inhibition curve with a large enough effect in the repeat runs, not every such curve was filed as active; inconclusive means weak or mixed curves); conditions: TRHR-HEK293, TRH-induced calcium fluorescence, antagonist mode; series mostly up to 51.3 µM
# In short: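 Screening used HEK293 cells engineered with TRHR, with a brief 5 min room-temperature compound exposure preceding addition of TRH to 1 nM. The read-out was kinetic calcium-dye fluorescence, concentration-response from 15 doses in triplicate.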
# [16] = target: Androgen receptor (Homo sapiens) (UniProt P10275); experiment: qHTS assay to identify small molecule antagonists of the androgen receptor (AR) signaling pathway using the MDA cell line (AID 743042; further: nearly all actives have a fitted effect of over 55% in size; further: potency means the concentration at half of the fitted maximal effect); conditions: MDA-kb2 AR-luc, MMTV luciferase, R1881 antagonist, 16 h; series mostly up to 70.3 µM
# In short: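 MDA-kb2 cells (human breast carcinoma, stably carrying an MMTV-luciferase reporter responsive to AR and GR) were plated at 3,000 cells/well and preincubated 5 hr at 37C, then given compound plus R1881 agonist for 16 h. ONE-Glo luminescence was read.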
# [17] = qHTS assay to test for compound auto fluorescence at 590 nm (red) in HepG2 cells (AID 720674); conditions: HepG2 autofluorescence, red 540/590 nm, 1 h; series mostly up to 91.3 µM; further: potency means the concentration at half of the fitted maximal effect
# In short: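 Compound auto-fluorescence is scored relative to Rose Bengal sodium, measured at 540/590 nm in live HepG2 cultures after 1 hr compound contact (37 C, 5% CO2).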
# [18] = qHTS assay to test for compound auto fluorescence at 590 nm (red) in HEK293 cells (AID 720679); conditions: red autofluorescence 540/590 nm; series mostly up to 46 µM; further: potency means the concentration at half of the fitted maximal effect
# In short: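 Red-channel autofluorescence (Ex/Em 540/590 nm; Rose Bengal sodium reference) was measured after overnight 37C, 5% CO2 exposure of attached HEK293 cells, 2,000 per well in medium with 10% dialyzed FBS.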
# Tags describe the fitted curve by direction and shape or compound fluorescence and quenching.
smiles,measurement,setting,value
CCN(CC)S(=O)(=O)c1ccc(C(=O)O)cc1,Potency,[1],inactive
CC/C=C\C#N,Potency,[2],inactive
O=C(Cn1ccnc1[N+](=O)[O-])NCc1ccccc1,Potency,[3],inactive
C/C(=N\[Si](C)(C)C)O[Si](C)(C)C,Potency,[3],inactive
CCCCO,Potency,[4],inactive
CC(=O)NCc1c(I)c(NC(C)=O)c(I)c(C(=O)O)c1I,Potency,[5],inactive
CN(C)CCN(Cc1ccsc1)c1ccccn1,Potency,[5],inactive
C=COCC1CCC(COC=C)CC1 (stereo not drawn),Potency,[6],inactive
CCCCC(C)C(=O)O (stereo not drawn),Potency,[7],inactive
CC12CCC(C(=O)C1=O)C2(C)C (stereo not drawn),Potency,[8],inactive
Cc1ncc(CO)c(CN)c1O,Potency,[9],inactive
CN1CCN(c2c(F)cc3c(=O)c(C(=O)O)cn4c3c2OCN4C)CC1,Potency,[10],inactive
NC(N)=O,Potency,[4],"inconclusive: 38.9 µM [cytotoxic, partial curve]"
same,Potency,[11],"inconclusive: 65.5 µM [cytotoxic, single point]"
same,Potency,[12],"inconclusive: 32.5 µM [activator, partial curve]"
CC1(C)OC[C@@H](COC(=O)CCc2ccc(OC[C@@H](O)CNCCNC(=O)N3CCOCC3)cc2)O1,Potency,[8],inactive
c1coc(CNc2ncnc3nc[nH]c23)c1,Potency,[13],"inconclusive: 68.6 µM [inhibitor, partial curve, poor fit]"
CO[C@@]1(NC(=O)Cc2cccs2)C(=O)N2C(C(=O)O)=C(COC(N)=O)CS[C@@H]21,Potency,[9],inactive
O=P(O)(O)CP(=O)(O)O,Potency,[14],inactive
CCCCN=C(N)N=C(N)N,Potency,[12],inactive
CN1[C@@H]2CC[C@H]1CC(NC(=O)n1c(=O)[nH]c3ccccc31)C2 (stereo partly drawn),Potency,[8],"inconclusive: 23.7 µM [cytotoxic, partial curve]"
O=S(=O)(O)c1ccc2cc(O)ccc2c1,Potency,[15],inactive
CN1CCCN=C1/C=C/c1cccs1,Potency,[12],inactive
N#Cc1ccc2c(c1)N(CCCN1CCC(O)CC1)c1ccccc1S2,Potency,[16],"inconclusive: 13.3 µM [inhibitor, partial curve, poor fit]"
C=C[C@]1(C)C[C@@H](OC(=O)CSC(C)(C)CNC(=O)[C@H](N)C(C)C)[C@]2(C)[C@H](C)CC[C@]3(CCC(=O)[C@H]32)[C@@H](C)[C@@H]1O,Potency,[16],"inconclusive: 29.8 µM [inhibitor, partial curve]"
CCCOCCOCCOCCO,activation,[14],inconclusive: 13.8%
O=C(O)c1c(Cl)c(Cl)c(Cl)c(Cl)c1-c1c2cc(I)c(=O)c(I)c-2oc2c(I)c(O)c(I)cc12,Potency,[17],active: 11.2 µM
same,Potency,[18],active: 11.2 µM [fluorescent]
same,Potency,[6],active: 11.2 µM [fluorescent]
same,Potency,[14],inactive
same,Potency,[16],inactive
CCCCc1ccc(Cl)cc1,Potency,[17],inactive
c1ccc2c(c1)Sc1ccccc1N2CCN1CCCC1,Potency,[2],inactive

# Some of the entries so far, with bars between the fields.
smiles | measurement | setting | value
NC(N)=O | Potency | [4] | inconclusive: 38.9 µM [cytotoxic, partial curve]
same | Potency | [11] | inconclusive: 65.5 µM [cytotoxic, single point]
